Results: PMC11599123
Results are given in words; binding and its absence hold for the method and conditions named. Some binding calls cover weakened binding; strength is not graded here. Where a sequence is shown, tags or fusion partners need not be part of it.

By UniProt entry, the sequences of proteins in these tests, tags left out.
UniProt P84095: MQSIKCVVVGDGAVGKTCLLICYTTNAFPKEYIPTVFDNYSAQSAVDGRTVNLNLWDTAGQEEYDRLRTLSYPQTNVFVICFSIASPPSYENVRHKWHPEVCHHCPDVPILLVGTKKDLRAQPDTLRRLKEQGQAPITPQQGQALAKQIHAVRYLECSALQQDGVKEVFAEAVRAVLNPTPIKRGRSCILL
UniProt P61589: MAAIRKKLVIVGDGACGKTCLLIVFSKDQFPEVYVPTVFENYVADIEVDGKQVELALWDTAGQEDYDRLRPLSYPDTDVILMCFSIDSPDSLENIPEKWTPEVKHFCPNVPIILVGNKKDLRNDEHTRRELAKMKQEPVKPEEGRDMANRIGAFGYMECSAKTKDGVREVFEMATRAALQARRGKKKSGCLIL

Experiments:
Assay in all cases: pull-down; direct binding: GST-Rho GTPases immobilised on glutathione agarose beads, 10 µg purified His6-RhoGDI, 45 min in 1x PBS, 0.5% Triton X-100, 5 mM MgCl2; immunoblot; both purified
GST-tagged RhoG = GST-tagged RhoG (UniProt P84095)
GST-tagged RhoA = GST-tagged RhoA (UniProt P61589)
GST-tagged Cdc42, Q8CFN2 = settings: remark: other sources report otherwise

binding (GST-tagged RhoG) | binding (GST-tagged RhoA) | binding (GST-tagged Cdc42, Q8CFN2) | Binder
binds | binds | – | His6-tagged RhoGDI1 (protein, UniProt Q5XI73 1-204) MAEQEPTAEQLAQIAAENEEDEHSVNYKPPAQKSIQEIQELDKDDESLRKYKEALLGRVAVSADPNVPNVIVTRLTLVCSTAPGPLELDLTGDLESFKKQSFVLKEGVEYRIKISFRVNREIVSGMKYIQHTYRKGVKIDKTDYMVGSYGPRAEEYEFLTPMEEAPKGMLARGSYNIKSRFTDDDKTDHLSWEWNLTIKKEWKD
– | – | binds | His6-tagged RhoGDI1, Q5XI73 1-204 (protein) MAEQEPTAEQLAQIAAENEEDEHSVNYKPPAQKSIQEIQELDKDDESLRKYKEALLGRVAVSADPNVPNVIVTRLTLVCSTAPGPLELDLTGDLESFKKQSFVLKEGVEYRIKISFRVNREIVSGMKYIQHTYRKGVKIDKTDYMVGSYGPRAEEYEFLTPMEEAPKGMLARGSYNIKSRFTDDDKTDHLSWEWNLTIKKEWKD
